54 sequences from publication PMC7819943, “Rice protein-binding microarrays: a tool to detect cis-acting elements near promoter regions in rice” can be followed below.

This is one part of the list.

The assay deals with T1, OsSMF1 (Oryza sativa, UniProt Q6ZLB0 1-436).
T1 sequence: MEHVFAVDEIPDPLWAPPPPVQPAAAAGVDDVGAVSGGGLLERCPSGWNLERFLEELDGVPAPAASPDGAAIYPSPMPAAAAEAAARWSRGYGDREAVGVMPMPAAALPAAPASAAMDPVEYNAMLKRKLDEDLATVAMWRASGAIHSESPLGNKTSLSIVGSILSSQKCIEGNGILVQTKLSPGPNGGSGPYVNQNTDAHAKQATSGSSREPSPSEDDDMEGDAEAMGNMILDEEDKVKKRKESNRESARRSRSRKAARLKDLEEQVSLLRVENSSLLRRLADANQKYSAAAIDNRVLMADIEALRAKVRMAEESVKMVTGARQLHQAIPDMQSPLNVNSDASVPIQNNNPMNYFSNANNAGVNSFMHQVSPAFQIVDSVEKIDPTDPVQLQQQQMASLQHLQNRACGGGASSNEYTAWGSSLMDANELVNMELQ
Nature of the assay: protein-binding microarray (RPBM); PBS, 2% BSA, 51.3 ng/ul salmon testes DNA, 50 uM zinc acetate, 200 nM TF, 25 C, 1 h; high values mean tight binding. As to conditions: protein: recombinant; tags: N-terminal polyhistidine and DsRed monomer fusion (pET32a); chain copies: 2; label: CyDye5-dUTP incorporated in the synthesized complementary strand; 3' TTTTT single-stranded linker to array surface; dsDNA, one strand shown. The method, boiled down:
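Binding signal here means per-feature fluorescence intensity in arbitrary units. The values were read on an Axon 4000B scanner after a custom Agilent array, double-stranded by primer extension with Cy5-dUTP, was incubated with 200 nM protein at 25 °C for 1 h in PBS with 2% BSA, salmon testes DNA and 50 µM zinc acetate, then washed. The proteins were transcription factors with an N-terminal polyhistidine tag and DsRed, expressed in E. coli BL21-CodonPlus and purified on Ni–NTA.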
Turning to “GGCAGTGCGGCGGCGGCGACTTCCGGCTGCGTCGGCGGAACGGAGTCACCTAGTGCAG”, the binding signal is 20000 fluorescence intensity (a.u.).
Under “AATCTGCGTAGGTACATCCTAAGAAGATATTTTGCGTTCACGGAGTCACCTAGTGCAG” stands 3410 fluorescence intensity (a.u.).
Under “TACACCTGCCACTGCTGCTGACCCTGCCAACCCCAACAAGCGGAGTCACCTAGTGCAG” stands 3640 fluorescence intensity (a.u.); under “AACCTGCACGCTCATGTTGTTGTTTTGTGAAGATGCAACTCGGAGTCACCTAGTGCAG”, 3390 fluorescence intensity (a.u.); under “AGAATTTTCCATATCTTAAGTCCATGCATGCCGTCAGCAGCGGAGTCACCTAGTGCAG”, 5810 fluorescence intensity (a.u.).
Under “TTGACGGCTCTGACTCGTGCTGACGTGGCACGTGGCGAACCGGAGTCACCTAGTGCAG” stands 28700 fluorescence intensity (a.u.); under “GACTGTATATATCCCGTAGCCGGCGTCGTCACCCTCGTTGCGGAGTCACCTAGTGCAG”, 4600 fluorescence intensity (a.u.); under “TAGAAAATTGTATTTAAAGTATATGTGAGTAGTGTCTATCCGGAGTCACCTAGTGCAG”, 28600 fluorescence intensity (a.u.).
On to “ACCGCCGCGCTCGCACGCCGCCTCCGTCGGCCGCCGTGGCCGGAGTCACCTAGTGCAG”, for which the binding signal was 3660 fluorescence intensity (a.u.).
As to “GCCGGTGAGCATCCCTCCCTACCCACACCTCATCAGGTATCGGAGTCACCTAGTGCAG”, the binding signal is 3160 fluorescence intensity (a.u.).
For “TATACACGCAGAGAGATAATGACAGCGTGGCCATGGACTTCGGAGTCACCTAGTGCAG”, the binding signal is 4420 fluorescence intensity (a.u.).
Under “TTCTCCGGCCGCCGCCGCCATCGCCGCCGGCCGTAGCATGCGGAGTCACCTAGTGCAG” stands 56000 fluorescence intensity (a.u.); under “GTGCGACGATTGCTGAGCGAGCACGCCACGGGGTGGGGCGCGGAGTCACCTAGTGCAG”, 4040 fluorescence intensity (a.u.).
On to “ATTTAAAATAGTTTTGTACGCATGCGTGACGCTGACGTCACGGAGTCACCTAGTGCAG”, for which the binding signal was 15400 fluorescence intensity (a.u.).
Under “AAGCAGGATCCGCGGCGAGCAAGCCTGCGACATCGCCTTTCGGAGTCACCTAGTGCAG” stands 4490 fluorescence intensity (a.u.); under “ACTCCTAGCTTGGCACGTGACCTATGCGTGATCCGCAACCCGGAGTCACCTAGTGCAG”, 3220 fluorescence intensity (a.u.).
Under “CATATCCATGTCATCCTCATCCTCTGCCCCTTGTTCATCCCGGAGTCACCTAGTGCAG” stands 7200 fluorescence intensity (a.u.).
Consider “GAGAGGAGGAGGAAGAGGGGCTCTAGTTGAAGAGAGGGAGCGGAGTCACCTAGTGCAG”, for which the binding signal was 3210 fluorescence intensity (a.u.).
As for “GTAGCGTCCCTATTTAACGTATCCACACGCATCACAAGATCGGAGTCACCTAGTGCAG”, the binding signal is 4750 fluorescence intensity (a.u.).
Under “TTGTAAATGATATGTCATGTGTGTATGATGTTTAAAATACCGGAGTCACCTAGTGCAG” stands 3790 fluorescence intensity (a.u.); under “AAACCTGATCAGTTGGACGAGGTAAACAAGTGGTGGATATCGGAGTCACCTAGTGCAG”, 28700 fluorescence intensity (a.u.); under “AAAACCACACGCATTTTGACACTTAGCACTTGATTACATACGGAGTCACCTAGTGCAG”, 5320 fluorescence intensity (a.u.).
Under “CATCAATCCTCTGCTTGGTATGTTGCTGTCACTCCCTGTGCGGAGTCACCTAGTGCAG” stands 3900 fluorescence intensity (a.u.); under “AATCTGGATAGATGCGCTGACGTAGTGACGTGGTTAAATTCGGAGTCACCTAGTGCAG”, 14600 fluorescence intensity (a.u.).
For “TGCGCATGGTAGGAAGGTTATGACGTGTTTGTATTCTCTTCGGAGTCACCTAGTGCAG”, the binding signal was 8550 fluorescence intensity (a.u.).
Take “TCTGTGTTTCCTCTGTTTGAGCTGACAATACGTCTGCTATCGGAGTCACCTAGTGCAG”: the binding signal was 3230 fluorescence intensity (a.u.).
As to “ACATGACGAGAAAAGTTGTCATGGTAGTCCAAACCGCAACCGGAGTCACCTAGTGCAG”, the binding signal was 4260 fluorescence intensity (a.u.).
On to “GAGCCTAGTCAACTCGCCCACGTGGACCAATTGTTCATCGCGGAGTCACCTAGTGCAG”, for which the binding signal is 12800 fluorescence intensity (a.u.).
Under “TTAGATCACCTTTTAACCAATAATCGTAACTTTGTGACACCGGAGTCACCTAGTGCAG” stands 37000 fluorescence intensity (a.u.); under “GCTCGCCATGATGGCCGGTGTGGTAGCTTGGATGGTTAAACGGAGTCACCTAGTGCAG”, 4980 fluorescence intensity (a.u.); under “TTTTGGCACGTGCGTGGCTACTCGATCGATCTCCCTATTTCGGAGTCACCTAGTGCAG”, 6830 fluorescence intensity (a.u.).
Under “ATGCAACGTAAGCGCTACGTAGGACTAAGACTGGGTCAATCGGAGTCACCTAGTGCAG” stands 5320 fluorescence intensity (a.u.).
With “CCCATCGGTGTCATGTTTAGGCGCGGTGTCTGCACGCGTGCGGAGTCACCTAGTGCAG”, the binding signal was 3310 fluorescence intensity (a.u.).
Under “TAGAGCGCCACATGACATCTTAGAAGCGTTTGTAGGAGTACGGAGTCACCTAGTGCAG” stands 30400 fluorescence intensity (a.u.).
Under “CAGGCAATCCACGCCGTCCATCTCCGCGGCCGCGTCACACCGGAGTCACCTAGTGCAG” stands 10300 fluorescence intensity (a.u.); under “GCCCTCGCGGCCGCCCGCGCGCGCGTCATCGTCGTCTCGACGGAGTCACCTAGTGCAG”, 3850 fluorescence intensity (a.u.).
“CCGAACTCCACCTCCCAGTTTCCCACGGGACCGTCTCCCACGGAGTCACCTAGTGCAG”: the binding signal was 3850 fluorescence intensity (a.u.).
Take “TTGTTGTCAACTCGCTGACTATTCCTCTCTTAGTTGGCATCGGAGTCACCTAGTGCAG”: the binding signal was 5270 fluorescence intensity (a.u.).
Under “CTACCGTGATCCTGACACCTACCGCATGGTTCACAATCCCCGGAGTCACCTAGTGCAG” stands 3790 fluorescence intensity (a.u.).
As to “GAGTGGAGAAGGCGCGCCACCGTCGCTAGAGCCGATGCTGCGGAGTCACCTAGTGCAG”, the binding signal is 47700 fluorescence intensity (a.u.).
Under “CTAACTTTTCGGCTGGTAGGCCCAACGGGAGATTGCCATCCGGAGTCACCTAGTGCAG” stands 3760 fluorescence intensity (a.u.); under “CAAAGTATACGTGTTTTCACCTCAATTAATTGTGCTCATTCGGAGTCACCTAGTGCAG”, 3830 fluorescence intensity (a.u.); under “AATCGCCCGCTGCAGGAGTCAAGTCTTCAGGCTTAGCTCGCGGAGTCACCTAGTGCAG”, 37800 fluorescence intensity (a.u.).
Regarding “AGAAGAGGTGATGTATAAAACATGTCACGATTTAATATCTCGGAGTCACCTAGTGCAG”, the binding signal is 4070 fluorescence intensity (a.u.).
Under “GCTGAGCAGGAGAGGGGCGCCGATCTCCATCCGGCGAGCACGGAGTCACCTAGTGCAG” stands 5450 fluorescence intensity (a.u.); under “TCATTGCAGATACTGGTGATGGTGGCAACTCGACTTATGCCGGAGTCACCTAGTGCAG”, 3650 fluorescence intensity (a.u.).
Under “ATTGCTGTTGCGTCCACGTCAAAAGCAGGCAGCAAATACACGGAGTCACCTAGTGCAG” stands 3240 fluorescence intensity (a.u.); under “CTCGTGGGGACGACGCTGGTGTCCGTGTACTGCAAGTGCGCGGAGTCACCTAGTGCAG”, 4060 fluorescence intensity (a.u.); under “TATCGAATTTTATAATTTTGTATCAATTCCAATACCACCACGGAGTCACCTAGTGCAG”, 3170 fluorescence intensity (a.u.).
Under “GCCTTCTGCTATTGCTGATGCGGCAGCGGATGTACCGCGGCGGAGTCACCTAGTGCAG” stands 4820 fluorescence intensity (a.u.); under “GCCGGCGCCGGCGCCGCCGTGGCGTCACCCGCACCTATTACGGAGTCACCTAGTGCAG”, 4500 fluorescence intensity (a.u.).
In the case of “GATTAAATTTTGATATGAGCGGTTCTAATCCATGAGACAACGGAGTCACCTAGTGCAG”, the binding signal is 21600 fluorescence intensity (a.u.).
Under “GTAGCAGGAGGGTTGCGTAATACGTTACCAGCACGACGTTCGGAGTCACCTAGTGCAG” stands 3570 fluorescence intensity (a.u.); under “GATACATTATAGTATAATGAATCTGGACACGTAGATTTATCGGAGTCACCTAGTGCAG”, 3890 fluorescence intensity (a.u.).
